In paper PMC8575462, “PP2A/B55α substrate recruitment as defined by the retinoblastoma-related protein p107” (eLife, 2021):
Substitutions are numbered along the chain they refer to. In names and notes the source's numbering stands. Results are given in words; binding and its absence hold for the method and conditions named. In cells and extracts the contact can be indirect. Some entries that bind do so weakly or less than the wild type. Sequences can lack the tags named with a protein.

Sequences of proteins named here, by UniProt entry; tags and fusion partners are left off.
UniProt Q16254: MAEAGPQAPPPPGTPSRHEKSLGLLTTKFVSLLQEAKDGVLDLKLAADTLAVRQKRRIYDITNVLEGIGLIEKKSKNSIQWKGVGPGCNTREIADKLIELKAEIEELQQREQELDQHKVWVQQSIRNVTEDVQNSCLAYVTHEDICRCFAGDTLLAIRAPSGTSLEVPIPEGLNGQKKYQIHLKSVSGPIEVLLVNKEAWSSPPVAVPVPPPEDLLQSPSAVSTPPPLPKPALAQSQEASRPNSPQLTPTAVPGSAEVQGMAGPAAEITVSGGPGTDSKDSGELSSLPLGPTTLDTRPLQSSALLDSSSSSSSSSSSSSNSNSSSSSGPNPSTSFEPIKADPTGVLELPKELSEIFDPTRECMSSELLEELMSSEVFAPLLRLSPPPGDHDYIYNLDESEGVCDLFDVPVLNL

What was measured:
[1] = molecular target: T1, Flag-p107 in U-2 OS cells (UniProt P28749); experiment: co-IP; U-2 OS cells co-transfected with Flag-p107, HA-E2F4, with or without Myc-B55α and/or cyclin E; IP with anti-Flag agarose; western blot
T1 sequence: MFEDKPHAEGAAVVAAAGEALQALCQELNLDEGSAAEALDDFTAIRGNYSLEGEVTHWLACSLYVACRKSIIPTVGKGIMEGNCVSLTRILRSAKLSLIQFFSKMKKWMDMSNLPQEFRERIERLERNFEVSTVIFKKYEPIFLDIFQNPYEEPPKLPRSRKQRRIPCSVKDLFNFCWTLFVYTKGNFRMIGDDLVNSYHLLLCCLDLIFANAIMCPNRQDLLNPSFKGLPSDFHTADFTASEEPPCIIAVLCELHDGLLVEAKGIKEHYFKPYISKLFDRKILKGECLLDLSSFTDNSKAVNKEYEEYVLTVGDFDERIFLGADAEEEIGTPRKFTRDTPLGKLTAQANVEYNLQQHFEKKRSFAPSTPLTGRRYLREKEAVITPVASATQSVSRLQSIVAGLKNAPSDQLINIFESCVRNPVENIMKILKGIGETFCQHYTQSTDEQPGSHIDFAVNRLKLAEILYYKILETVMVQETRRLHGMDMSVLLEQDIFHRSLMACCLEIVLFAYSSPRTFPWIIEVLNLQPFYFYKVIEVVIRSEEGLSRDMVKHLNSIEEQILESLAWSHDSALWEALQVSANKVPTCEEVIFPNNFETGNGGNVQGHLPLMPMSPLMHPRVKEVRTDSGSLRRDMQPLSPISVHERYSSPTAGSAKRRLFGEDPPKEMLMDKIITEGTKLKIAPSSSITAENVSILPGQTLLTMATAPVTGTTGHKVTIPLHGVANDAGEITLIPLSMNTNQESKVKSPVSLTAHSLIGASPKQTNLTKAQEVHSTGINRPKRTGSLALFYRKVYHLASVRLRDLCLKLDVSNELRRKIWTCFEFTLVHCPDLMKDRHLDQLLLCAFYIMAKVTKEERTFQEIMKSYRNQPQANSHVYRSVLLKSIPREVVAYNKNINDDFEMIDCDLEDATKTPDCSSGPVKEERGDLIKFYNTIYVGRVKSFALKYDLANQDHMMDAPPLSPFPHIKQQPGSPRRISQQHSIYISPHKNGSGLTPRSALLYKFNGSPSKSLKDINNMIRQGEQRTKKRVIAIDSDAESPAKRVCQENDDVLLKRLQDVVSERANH

[2] = molecular target: T2, Flag-p107 SLiM MT (UniProt P28749); experiment: co-IP; 293T cells co-transfected with WT or SLiM MT Flag-p107 and Myc-B55α wildtype or D197K; IP with anti-Flag agarose
T2 sequence: T1 sequence with H619A, R621A, V622A, V625A

HA-E2F4 (from UniProt Q16254 1-413) was tested, and the binding [1] was “binds”.

B1: Myc-B55α D197K (protein, UniProt P63151 1-447)
chain: MAGAGGGNDIQWCFSQVKGAVDDDVAEADIISTVEFNHSGELLATGDKGGRVVIFQQEQENKIQSHSRGEYNVYSTFQSHEPEFDYLKSLEIEEKINKIRWLPQKNAAQFLLSTNDKTIKLWKISERDKRPEGYNLKEEDGRYRDPTTVTTLRVPVFRPMDLMVEASPRRIFANAHTYHINSISINSDYETYLSADKLRINLWHLEITDRSFNIVDIKPANMEELTEVITAAEFHPNSCNTFVYSSSKGTIRLCDMRASALCDRHSKLFEEPEDPSNRSFFSEIISSISDVKFSHSGRYMMTRDYLSVKIWDLNMENRPVETYQVHEYLRSKLCSLYENDCIFDKFECCWNGSDSVVMTGSYNNFFRMFDRNTKRDITLEASRENNKPRTVLKPRKVCASGKRKKDEISVDSLDFNKKILHTAWHPKENIIAVATTNNLYIFQDKVN
For B1, the binding [2] was “no binding”.
